Results on one substance are retold here after PMC5133995.

Chains of the proteins cited; added tags and fusions are not shown.
UniProt Q13164: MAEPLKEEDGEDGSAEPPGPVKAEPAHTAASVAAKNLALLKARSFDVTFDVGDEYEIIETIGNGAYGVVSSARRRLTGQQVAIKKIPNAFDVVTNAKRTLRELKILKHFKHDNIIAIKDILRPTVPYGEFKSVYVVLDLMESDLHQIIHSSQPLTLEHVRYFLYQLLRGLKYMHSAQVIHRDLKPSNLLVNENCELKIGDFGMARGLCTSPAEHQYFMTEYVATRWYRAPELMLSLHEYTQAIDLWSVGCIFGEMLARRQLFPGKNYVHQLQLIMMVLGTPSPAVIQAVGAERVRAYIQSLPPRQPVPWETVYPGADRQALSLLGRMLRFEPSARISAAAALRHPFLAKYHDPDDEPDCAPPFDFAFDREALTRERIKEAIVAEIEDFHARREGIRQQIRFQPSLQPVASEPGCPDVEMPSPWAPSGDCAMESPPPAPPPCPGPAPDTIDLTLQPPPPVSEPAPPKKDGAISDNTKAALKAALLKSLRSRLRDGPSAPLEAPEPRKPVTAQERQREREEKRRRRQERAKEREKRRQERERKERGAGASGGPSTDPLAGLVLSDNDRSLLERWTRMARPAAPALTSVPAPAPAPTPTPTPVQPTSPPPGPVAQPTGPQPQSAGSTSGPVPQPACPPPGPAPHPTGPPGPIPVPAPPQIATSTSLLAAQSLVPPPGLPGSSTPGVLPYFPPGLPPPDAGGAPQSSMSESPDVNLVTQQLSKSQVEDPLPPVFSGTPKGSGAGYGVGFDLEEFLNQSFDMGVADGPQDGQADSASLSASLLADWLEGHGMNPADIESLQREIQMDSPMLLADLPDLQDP

Results are given in words; binding and its absence hold for the method and conditions named. In cells and extracts the contact can be indirect. Some results given as binding are weak or reduced against the parent protein; the word gives no strength.

This assay concerns the target cyclin-dependent kinase 5 (CDK5) (human (endogenous in HCT116)) (UniProt Q00535). As to the kind of experiment: co-IP; endogenous proteins in non-transfected HCT116 cells; RIPA lysate, precleared with protein A+G agarose, immunoprecipitated with 2 ug anti-IgG, anti-CDK5 or anti-ERK5 and protein G-agarose overnight at 4 °C; washed three times with PBS; western blotting. In general terms: Immunoblotting shows a protein as a band on a membrane.

“ERK5 (from UniProt Q13164 1-816) (enzyme)”: the binding entry is “binds”.
